Binding signal data for 42 sequences are collected here from article PMC7819943, “Rice protein-binding microarrays: a tool to detect cis-acting elements near promoter regions in rice”.

Amino acid sequences for entries named in this document (tags omitted).
UniProt Q0JBA9, entry or part of it: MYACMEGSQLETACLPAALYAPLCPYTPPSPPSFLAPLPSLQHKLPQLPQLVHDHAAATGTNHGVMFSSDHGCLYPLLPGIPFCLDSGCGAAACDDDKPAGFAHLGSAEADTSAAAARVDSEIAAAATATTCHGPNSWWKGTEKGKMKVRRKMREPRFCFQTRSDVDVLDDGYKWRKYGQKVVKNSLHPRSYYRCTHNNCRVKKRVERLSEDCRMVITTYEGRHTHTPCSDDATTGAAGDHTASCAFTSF

The other results are listed elsewhere or left out.

The assay addresses OsWRKY34 (Oryza sativa, UniProt Q0JBA9 1-250). Kind of assay: protein-binding microarray (RPBM); PBS, 2% BSA, 51.3 ng/ul salmon testes DNA, 50 uM zinc acetate, 200 nM TF, 25 C, 1 h; high values mean tight binding. Particulars: protein: recombinant; tags: N-terminal polyhistidine and DsRed monomer fusion (pET32a); label: CyDye5-dUTP incorporated in the synthesized complementary strand; 3' TTTTT single-stranded linker to array surface; dsDNA, one strand shown. The method in brief: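 An Axon 4000B scanner gave the binding signal as per-feature fluorescence intensity in arbitrary units. This followed washing of a custom Agilent array that had been incubated for 1 h at 25 °C with 200 nM protein in PBS, 2% BSA, salmon testes DNA and 50 µM zinc acetate. The proteins were transcription factors fused at the N-terminus to polyhistidine and DsRed, expressed in E. coli BL21-CodonPlus and purified on Ni–NTA.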
On to “AATTCATCCTATGACGGCTTTACTGAACCTTGATTTATATCGGAGTCACCTAGTGCAG”, for which the binding signal is 8830 fluorescence intensity (a.u.).

Consider “ACACAAACTTTCAACTTTTTCTGTCACATCGTTCCAATTTCGGAGTCACCTAGTGCAG”, for which the binding signal was 8220 fluorescence intensity (a.u.).

For the sequence “CTCTACTGGTACATCCACGCTACCTCCAGCCCTCCAGCCACGGAGTCACCTAGTGCAG”, the binding signal was 8660 fluorescence intensity (a.u.).

Regarding “CGCGCTCCTCTCCGCTCCTAGGATTGTTCTTTTTTTTAAACGGAGTCACCTAGTGCAG”, the binding signal is 8390 fluorescence intensity (a.u.).

For the sequence “TCCGCTACCGTATTCGTTCCGTCTCGTATTCGCTCCGTTTCGGAGTCACCTAGTGCAG”, the binding signal is 8940 fluorescence intensity (a.u.).

On to “ATATACTTCTCTCTTGGTTGATATTACTTATCGTTCTGAACGGAGTCACCTAGTGCAG”, for which the binding signal was 8580 fluorescence intensity (a.u.).

For the sequence “GGTCTCACCAGACTGTGACACATTTTTCCCACCGGCTAACCGGAGTCACCTAGTGCAG”, the binding signal is 9040 fluorescence intensity (a.u.).

On to “TAATTTGGGTGCACCGTGCACCTACTCTCTATGACCATCACGGAGTCACCTAGTGCAG”, for which the binding signal was 8850 fluorescence intensity (a.u.).

“GACAGTTCATTTATATCCGGCCCGTTAGAGGTGTTACTCACGGAGTCACCTAGTGCAG”: the binding signal is 13000 fluorescence intensity (a.u.).

On to “ATCTTTTTACCCAATTCTTGATCACTCTTCTTGGTCGTTCCGGAGTCACCTAGTGCAG”, for which the binding signal is 8060 fluorescence intensity (a.u.).

As for “GTATCGGTTTTTATTTAGAACTGGCTCCTATCTCTCCATACGGAGTCACCTAGTGCAG”, the binding signal was 9040 fluorescence intensity (a.u.).

“TAAATACCATCACTACCTTTCTGCTTGTTAATTCCAATTGCGGAGTCACCTAGTGCAG”: the binding signal was 8440 fluorescence intensity (a.u.).

Consider “CTATAAGTTTCTGTGCTCAACTTTGATCGTCCGTCTTATTCGGAGTCACCTAGTGCAG”, for which the binding signal is 9880 fluorescence intensity (a.u.).

Consider “TTTTTGCGGTGTCCCTAGTTAATTACACTTTTTTGGATGTCGGAGTCACCTAGTGCAG”, for which the binding signal was 8590 fluorescence intensity (a.u.).

Consider “CTAATGGTTTACCTCGTTTTGCGTATCTTCCCAATCTTCTCGGAGTCACCTAGTGCAG”, for which the binding signal was 8910 fluorescence intensity (a.u.).

As to “ATGCTCATCACCCACCGGCATTCTACCTGCATATTGTTTTCGGAGTCACCTAGTGCAG”, the binding signal was 13900 fluorescence intensity (a.u.).

Regarding “ATAATATACATTTTCTTTTTTTCTCATATTTTCATTATAACGGAGTCACCTAGTGCAG”, the binding signal was 10200 fluorescence intensity (a.u.).

As for “CCTCATTATTTTGTTCCAAGGGATTCTAATTTTCCTTCTACGGAGTCACCTAGTGCAG”, the binding signal is 9060 fluorescence intensity (a.u.).

With “TTATTTGATCGTTTTACTGAGCGGTTTGTTAACTCGAACCCGGAGTCACCTAGTGCAG”, the binding signal is 8750 fluorescence intensity (a.u.).

Turning to “GATGACACAGTAGTACTCCTAGGCACGTACGTACTTTCTCCGGAGTCACCTAGTGCAG”, the binding signal is 8880 fluorescence intensity (a.u.).

As for “ATGCTCCTACTTTCCTTTGCTGTATATATTACTCCATTTGCGGAGTCACCTAGTGCAG”, the binding signal was 8260 fluorescence intensity (a.u.).

Consider “TAGTGTTCCCTTTGTTCATATTTTCATGTTTTCTCTAACACGGAGTCACCTAGTGCAG”, for which the binding signal is 15200 fluorescence intensity (a.u.).

For “TAGCGTATGACAATGTTATTCATGTGTGCGGTTTTTTATACGGAGTCACCTAGTGCAG”, the binding signal was 8600 fluorescence intensity (a.u.).

On to “GCCACTTCCCACCACCTCCTCTCCTTCCCTCGCTCTGCTACGGAGTCACCTAGTGCAG”, for which the binding signal is 8790 fluorescence intensity (a.u.).

As to “TTTTTTTGCCTCGCCACGTAGAACATTTGAACGCATGTACCGGAGTCACCTAGTGCAG”, the binding signal was 8390 fluorescence intensity (a.u.).

As to “ACCCACCGCCGCAACACGCGCTCCACCGCCAACACATCGCCGGAGTCACCTAGTGCAG”, the binding signal was 9720 fluorescence intensity (a.u.).

Take “TTAGCTTCTTTCCTTAGTTTTTTTTTCTCTAAAGGGGCATCGGAGTCACCTAGTGCAG”: the binding signal was 8650 fluorescence intensity (a.u.).

On to “TGATGACTCTCACCTGACCCGCGATCCTCCGGTGGGCCCACGGAGTCACCTAGTGCAG”, for which the binding signal is 11500 fluorescence intensity (a.u.).

As to “GAGACCTGATGCCACGGAAAGCCCATGGGCCTTCGTTGACCGGAGTCACCTAGTGCAG”, the binding signal is 11600 fluorescence intensity (a.u.).

In the case of “AAGAGTCTATACATGTATCAGCATATATTAATTATATATACGGAGTCACCTAGTGCAG”, the binding signal is 8330 fluorescence intensity (a.u.).

On to “TACTGTCACAGTAGTTCGGAGGGTAATTCGTACTTTTTCCCGGAGTCACCTAGTGCAG”, for which the binding signal is 8870 fluorescence intensity (a.u.).

On to “TTAGTTGTAAAAAATTTTATCCCTACATGTTACATCGAATCGGAGTCACCTAGTGCAG”, for which the binding signal was 8120 fluorescence intensity (a.u.).

On to “TTGCTTATTGTAGTTATTGGAAGATTCTTAATTTCTTTCTCGGAGTCACCTAGTGCAG”, for which the binding signal is 8280 fluorescence intensity (a.u.).

As for “GGGTGTGAAGTGTACTCTCTTTTTTTTTAACGTTTTAGATCGGAGTCACCTAGTGCAG”, the binding signal was 11400 fluorescence intensity (a.u.).

Take “TCCACCCATCCTCATCATTATCCTCTCTCTCCTCTCTCACCGGAGTCACCTAGTGCAG”: the binding signal is 9640 fluorescence intensity (a.u.).

“CACTGCTTCTCACCCAACTCGCGCGCGCCATTCCTTGCCTCGGAGTCACCTAGTGCAG”: the binding signal was 11600 fluorescence intensity (a.u.).

As to “ATTTGTAAGTATCAACCATCATATCATTCTCTCTCTTTTACGGAGTCACCTAGTGCAG”, the binding signal is 8130 fluorescence intensity (a.u.).

In the case of “GTGGGAGCAAGTGGTGGGCAATATGCCATGTAGTAGTAGACGGAGTCACCTAGTGCAG”, the binding signal was 9760 fluorescence intensity (a.u.).

Turning to “TGTTATTATGTTTCAGGAATACTTCCTCTGGTTATAAATACGGAGTCACCTAGTGCAG”, the binding signal is 9850 fluorescence intensity (a.u.).

Turning to “TTGGCCAAAGTCAAACTGTTTCAAGTTTGACTAAGTTTATCGGAGTCACCTAGTGCAG”, the binding signal was 13200 fluorescence intensity (a.u.).

In the case of “CCACGCTCCGGGCCGTTGTCTTCTGTGTCGCTTCGAATTCCGGAGTCACCTAGTGCAG”, the binding signal was 9760 fluorescence intensity (a.u.).

Regarding “TTGAGTCTGCTTCTATTTTTCTATTCGAGCCCTTTTTCCTCGGAGTCACCTAGTGCAG”, the binding signal is 9400 fluorescence intensity (a.u.).
